According to PMC8980529, “Complement Factor H-Related Proteins FHR1 and FHR5 Interact With Extracellular Matrix Ligands, Reduce Factor H Regulatory Activity and Enhance Complement Activation” (Frontiers in Immunology, 2022):

How the values were obtained:
[1] = target: T1, Recombinant human factor H-related protein 5 (human) (UniProt Q9BXR6); test: ELISA; FHR5, CCPs 1-4, CCPs 3-7, CCPs 8-9 and HSA immobilised at 5 µg/ml, blocked with 4% BSA; 20 µg/ml C3b, iC3b, C3c or 10 µg/ml C3d added; detected with anti-human C3 or anti-human C3d; both purified
T1 sequence: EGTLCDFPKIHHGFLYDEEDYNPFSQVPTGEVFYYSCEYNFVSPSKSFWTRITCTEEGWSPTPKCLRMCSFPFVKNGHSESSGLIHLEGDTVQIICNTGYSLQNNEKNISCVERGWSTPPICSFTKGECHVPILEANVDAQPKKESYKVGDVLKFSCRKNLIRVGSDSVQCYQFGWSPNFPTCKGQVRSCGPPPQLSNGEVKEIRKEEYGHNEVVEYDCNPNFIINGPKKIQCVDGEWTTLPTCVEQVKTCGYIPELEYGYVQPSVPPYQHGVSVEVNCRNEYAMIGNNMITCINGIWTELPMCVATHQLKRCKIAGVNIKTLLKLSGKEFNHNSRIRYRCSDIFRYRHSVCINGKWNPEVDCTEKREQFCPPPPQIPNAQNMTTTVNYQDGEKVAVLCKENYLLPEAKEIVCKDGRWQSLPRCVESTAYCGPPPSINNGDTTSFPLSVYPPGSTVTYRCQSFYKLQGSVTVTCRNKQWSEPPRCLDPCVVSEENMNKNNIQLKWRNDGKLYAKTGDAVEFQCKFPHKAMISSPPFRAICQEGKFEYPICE

[2] = target: T2, Proline/arginine-rich end leucine-rich repeat protein (UniProt P51888); test: ELISA; ECM proteins immobilised (10 µg/ml), incubated with FHR5 and its fragments CCPs 1-4, CCPs 3-7, CCPs 8-9 in equimolar concentrations (100 nM or 200 nM); detected with goat anti-human FHR5; both purified
T2 sequence: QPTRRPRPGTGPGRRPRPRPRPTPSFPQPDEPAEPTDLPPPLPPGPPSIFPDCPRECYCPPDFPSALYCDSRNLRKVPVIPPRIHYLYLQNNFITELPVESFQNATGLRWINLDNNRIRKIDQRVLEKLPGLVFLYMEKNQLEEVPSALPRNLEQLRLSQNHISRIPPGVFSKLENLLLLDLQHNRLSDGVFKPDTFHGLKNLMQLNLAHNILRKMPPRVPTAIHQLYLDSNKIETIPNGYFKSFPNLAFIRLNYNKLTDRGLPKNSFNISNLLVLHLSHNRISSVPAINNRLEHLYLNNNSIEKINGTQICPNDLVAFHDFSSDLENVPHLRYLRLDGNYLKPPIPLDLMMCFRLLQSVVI

Osteoadherin = target: T3, Osteoadherin (UniProt Q99983); test: as above
T3 sequence: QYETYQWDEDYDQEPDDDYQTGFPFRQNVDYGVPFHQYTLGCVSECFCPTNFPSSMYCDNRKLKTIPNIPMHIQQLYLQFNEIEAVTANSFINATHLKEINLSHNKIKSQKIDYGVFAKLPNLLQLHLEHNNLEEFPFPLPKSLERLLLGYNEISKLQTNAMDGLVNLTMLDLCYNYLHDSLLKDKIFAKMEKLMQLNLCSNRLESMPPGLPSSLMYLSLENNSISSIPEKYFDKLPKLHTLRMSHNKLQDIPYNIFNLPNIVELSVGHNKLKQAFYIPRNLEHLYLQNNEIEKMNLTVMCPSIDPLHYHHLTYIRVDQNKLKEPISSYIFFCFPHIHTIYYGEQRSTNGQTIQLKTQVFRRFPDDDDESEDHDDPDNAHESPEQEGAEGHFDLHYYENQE

Fibromodulin = target: T4, Fibromodulin (UniProt Q06828); test: as above
T4 sequence: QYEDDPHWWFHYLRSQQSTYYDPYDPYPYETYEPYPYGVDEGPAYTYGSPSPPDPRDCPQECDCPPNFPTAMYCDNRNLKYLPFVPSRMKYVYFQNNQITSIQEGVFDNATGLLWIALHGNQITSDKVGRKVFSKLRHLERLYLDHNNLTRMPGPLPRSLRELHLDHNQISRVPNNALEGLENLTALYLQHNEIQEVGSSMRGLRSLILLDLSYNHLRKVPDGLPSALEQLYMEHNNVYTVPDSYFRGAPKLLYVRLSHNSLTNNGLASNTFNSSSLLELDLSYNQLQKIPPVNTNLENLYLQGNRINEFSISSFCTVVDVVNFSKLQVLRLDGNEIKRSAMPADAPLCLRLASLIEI

Row | binding [1] | binding [2] | binding (Osteoadherin) | binding (Fibromodulin) | Substance
1 | binds |  |  |  | Purified human iC3b
2 |  | no binding (tested: 200 nM) | no binding (tested: 100 nM) | no binding (tested: 100 nM) | Recombinant human FHR5 fragment CCPs 1-4 (domain or fragment)
3 |  | binds | binds | binds | Recombinant human FHR5 fragment CCPs 3-7 (domain or fragment)
4 |  | no binding (tested: 200 nM) | no binding (tested: 100 nM) | no binding (tested: 100 nM) | Recombinant human FHR5 fragment CCPs 8-9 (domain or fragment)

These are yes or no findings as the source states them, for the method shown. Binding can be weak; no strength is given.
